Results as given in PubChem BioAssay AID448 (National Center for Advancing Translational Sciences (NCATS), 2006).
In all, about 65,000 compounds went through this assay and about 45 (0.07%) were called active. Inconclusive means that the source gave no clear call. Such entries were picked first, then a sample of the others. Calls come from the whole dose curve. Where the call is inconclusive, the potency comes from a doubtful curve fit.

System: Schistosoma mansoni peroxiredoxin 2 (Prx2)
Test: Schistosoma Mansoni Peroxiredoxins (Prx2)
Conditions: S. mansoni Prx2 activity coupled to TGR/GSH (TGR is thioredoxin glutathione reductase), NADPH fluorescence loss, qHTS
Summary of the method: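 Activity is read as the drop in NADPH fluorescence (365/450 nm), recorded every 30 sec for 8 min after H2O2 addition. Prx2 is coupled to TGR-driven NADPH oxidation through glutathione, in phosphate buffer pH 7.4.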
Potency is the fitted concentration of half-maximal effect.

| SMILES | Potency |
| --- | --- |
| CC(=O)c1c(C)n(CCCOC(C)C)c2ccc(O)cc12 | inconclusive: 1.96 µM [partial modulator] |
| CN(C)C(=O)c1ccc(-c2cncnc2Nc2ccccc2)cc1 | inactive: > 57 µM |
| c1ccc(-c2cccc(N3CC[C@@]4(CCCNC4)C3)c2)cc1 | inactive: > 57 µM |
| COc1ccc(NC(=O)COc2ccccc2C#N)c(S(=O)(=O)N2CCCCC2)c1 | inconclusive: 50.9 µM [single point] |
| COc1ccccc1N1CCN(C(CNS(=O)(=O)c2cc(F)ccc2F)c2cccnc2)CC1 (configuration not stated) | inconclusive: 116 µM [partial curve] |
| COc1ccccc1NC(=O)c1cc(S(=O)(=O)N2CCC3(CC2)OCCO3)ccc1F | inconclusive: 202 µM [partial curve] |
| Cc1cccc(-n2cnc3c(c2=O)c2nc4ccccc4nc2n3Cc2ccco2)c1 | inconclusive: 66.3 µM [single point] |
| CCC(C)NC(=O)c1cn(CC)c2ccc(S(=O)(=O)N(C)C)cc2c1=O (configuration not stated) | inactive: > 57 µM |
| CC(C)c1[nH]nc2c1C1(CCN(Cc3ccccc3)CC1)C(C#N)=C(N)O2 | inconclusive: 62.6 µM [single point] |
| CC(C(=O)NC1CCCCCC1)N(c1ccccc1)S(C)(=O)=O (configuration not stated) | inconclusive: 58 µM [partial curve] |
| CN(Cc1nc2ccccc2n1C)S(C)(=O)=O | inconclusive: 2.24 µM [partial modulator] |
| Cc1cc(C)n(-c2nc3ccccc3nc2N2CCN(C(=O)c3ccc(F)cc3)CC2)n1 | inconclusive: 62.6 µM [partial curve] |
| c1ccc(CO[C@H]2NCCN2Cc2ccccc2)cc1 | inactive: > 57 µM |
| CCN(CC)C1=CC(=O)OC12CCCCC2 | inconclusive: 35.9 µM [single point] |
| COc1ccc(C(=O)N2CCCC2=O)cc1 | inconclusive: 62.8 µM [single point] |
| OC[C@H](S)CS | inconclusive: 104 µM [partial curve] |
| COc1ccc2cc(CN(CC3COCCO3)S(=O)(=O)c3ccc(Cl)cc3)c(=O)[nH]c2c1 (configuration not stated) | inconclusive: 0.566 µM [partial modulator] |
| CC(=O)NC(Cc1c[nH]c2ccccc12)C(=O)OCC(=O)Nc1ccc2c(c1)OCO2 (configuration not stated) | inconclusive: 60.6 µM [single point] |
| CC1(C)CC(=O)C(C=NCCCn2ccnc2)=C(O)C1 | inconclusive: 100 µM [partial curve] |
| COc1cccc(-c2ccc3ncnc(NCc4ccccc4OC)c3c2)c1 | inactive: > 57 µM |
| COc1ccc(S(=O)(=O)NCc2ccc(C(=O)N3CCN(c4ccccn4)CC3)cc2)cc1 | inconclusive: 89.4 µM [single point] |
| Cn1c(C(=O)N2CCN(Cc3ccc4c(c3)OCO4)CC2)cc2sccc21 | inconclusive: 95.3 µM [partial curve] |
| CCCc1cc(-c2n[nH]c(C)c2-c2ccc(C(=O)OCC)o2)c(O)cc1O | inconclusive: 78.5 µM [single point] |

| SMILES | Potency |
| --- | --- |
| CC(C)Cn1c(SCC#N)nc2ccccc2c1=O | inconclusive: 74.5 µM [single point] |
| C[As+](C)(c1ccc(Br)c([N+](=O)[O-])c1)c1ccc(Br)c([N+](=O)[O-])c1.O=[N+]([O-])O | inconclusive: 101 µM [partial curve] |
| CC1=C(C(=O)Nc2ccccc2)SCCO1 | inconclusive: 93.4 µM [partial curve] |
| CN(Cc1ccco1)c1ccnc(-c2ccoc2)n1 | inconclusive: 104 µM [single point] |
| Nc1nc(N)c(N=Nc2ccc([As](=O)(O)O)c(O)c2)c(N)n1 | inconclusive: 55.8 µM [single point] |
| N#Cc1cccc(-c2nc(NCc3ccccc3)c3ccccc3n2)c1 | inactive: > 57 µM |
| Cc1cc(C)n2nc(SCC(=O)Nc3ccc(F)cc3)nc2n1 | inconclusive: 115 µM [partial curve] |
| COc1cc(NC(=O)Nc2cccc(C(C)=O)c2)cc(OC)c1OC | inconclusive: 64.4 µM [single point] |
| O=C(COC(=O)C1CCN(S(=O)(=O)c2cccs2)CC1)c1cc2ccccc2o1 | inactive: > 57 µM |
| O=C(NCc1ccc2c(c1)OCO2)C1CCCN(S(=O)(=O)c2cccnc2)C1 (configuration not stated) | inactive: > 57 µM |
| S[C@@H]1CCCN(Cc2ccccc2)C1 | inconclusive: 26 µM [partial curve] |
| COc1cccc(Nc2ncc3nc(-c4ccc(F)cc4)c(=O)n(C)c3n2)c1 | inconclusive: 45 µM [single point] |
| CN(C)c1ccc(-c2cncnc2NCc2cccs2)cc1 | inactive: > 57 µM |
| Cc1ccc2occ(C(c3nnnn3C3CCCC3)N3CCN(C(=O)c4ccco4)CC3)c(=O)c2c1 (configuration not stated) | inconclusive: 100 µM [partial curve] |
| Cc1nnc(SCC(=O)Nc2cccc(C(F)(F)F)c2)n1Cc1ccco1 | inconclusive: 149 µM [partial curve] |
| CCOc1ccc(N(CC(=O)N2CC=C(c3ccccc3)CC2)S(=O)(=O)c2c(C)noc2C)cc1 | inactive: > 57 µM |
| CNc1ncnc(Sc2nc(N)nc3nc[nH]c23)c1[N+](=O)[O-] | inconclusive: 57.4 µM [single point] |
| Cc1ccc2c(COn3nnc4ccc(S(=O)(=O)N(C)C)cc43)cc(=O)oc2c1C | inconclusive: 69.7 µM [partial curve] |
| Cc1nnc(Nc2ccc3c(c2)OCO3)c2ccccc12 | inconclusive: 85.8 µM [single point] |
| O=c1c(-c2ccco2)[n+]([O-])c2ccccc2n1OCc1ccccn1 | inconclusive: 304 µM [partial curve] |
| Cc1ccc(Cl)cc1NC(=O)Cn1cc2c(n1)CCCC2 | inconclusive: 112 µM [partial curve] |
| O=C(c1ccc(COc2c(F)c(F)c(F)c(F)c2F)o1)N1CCOCC1 | inconclusive: 60.1 µM [partial curve] |
| O=C(c1ccco1)N1CCC[C@@]2(CCN(c3ccccc3)C2)C1 | inactive: > 57 µM |

2 entries picked at random from the list so far:

| SMILES | Potency |
| --- | --- |
| COc1ccc2cc(CN(CC3COCCO3)S(=O)(=O)c3ccc(Cl)cc3)c(=O)[nH]c2c1 (configuration not stated) | inconclusive: 0.566 µM [partial modulator] |
| CCC(C)NC(=O)c1cn(CC)c2ccc(S(=O)(=O)N(C)C)cc2c1=O (configuration not stated) | inactive: > 57 µM |
